Data: publication PMC8505768
Results are given in words; binding and its absence hold for the method and conditions named. Binding seen in cells or lysates may run through a third protein. Some entries that bind do so weakly or less than the wild type.

Target: T1, S100 Calcium Binding Protein A16 (human (endogenous in SGC-7901 and MGC-803)) (UniProt Q96FQ6)
T1 sequence: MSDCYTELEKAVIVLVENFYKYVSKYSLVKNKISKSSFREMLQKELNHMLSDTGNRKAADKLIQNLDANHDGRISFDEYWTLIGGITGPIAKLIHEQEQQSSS
Experiment: co-IP; endogenous proteins; whole cell proteins of SGC-7901 and MGC-803 cells extracted by NP40 lysis; immunoprecipitation and Western blot

B1: Zonula Occludens-2 (protein, UniProt Q9UDY2 1-1190)
chain: MPVRGDRGFPPRRELSGWLRAPGMEELIWEQYTVTLQKDSKRGFGIAVSGGRDNPHFENGETSIVISDVLPGGPADGLLQENDRVVMVNGTPMEDVLHSFAVQQLRKSGKVAAIVVKRPRKVQVAALQASPPLDQDDRAFEVMDEFDGRSFRSGYSERSRLNSHGGRSRSWEDSPERGRPHERARSRERDLSRDRSRGRSLERGLDQDHARTRDRSRGRSLERGLDHDFGPSRDRDRDRSRGRSIDQDYERAYHRAYDPDYERAYSPEYRRGARHDARSRGPRSRSREHPHSRSPSPEPRGRPGPIGVLLMKSRANEEYGLRLGSQIFVKEMTRTGLATKDGNLHEGDIILKINGTVTENMSLTDARKLIEKSRGKLQLVVLRDSQQTLINIPSLNDSDSEIEDISEIESNRSFSPEERRHQYSDYDYHSSSEKLKERPSSREDTPSRLSRMGATPTPFKSTGDIAGTVVPETNKEPRYQEDPPAPQPKAAPRTFLRPSPEDEAIYGPNTKMVRFKKGDSVGLRLAGGNDVGIFVAGIQEGTSAEQEGLQEGDQILKVNTQDFRGLVREDAVLYLLEIPKGEMVTILAQSRADVYRDILACGRGDSFFIRSHFECEKETPQSLAFTRGEVFRVVDTLYDGKLGNWLAVRIGNELEKGLIPNKSRAEQMASVQNAQRDNAGDRADFWRMRGQRSGVKKNLRKSREDLTAVVSVSTKFPAYERVLLREAGFKRPVVLFGPIADIAMEKLANELPDWFQTAKTEPKDAGSEKSTGVVRLNTVRQIIEQDKHALLDVTPKAVDLLNYTQWFPIVIFFNPDSRQGVKTMRQRLNPTSNKSSRKLFDQANKLKKTCAHLFTATINLNSANDSWFGSLKDTIQHQQGEAVWVSEGKMEGMDDDPEDRMSYLTAMGADYLSCDSRLISDFEDTDGEGGAYTDNELDEPAEEPLVSSITRSSEPVQHEESIRKPSPEPRAQMRRAASSDQLRDNSPPPAFKPEPPKAKTQNKEESYDFSKSYEYKSNPSAVAGNETPGASTKGYPPPVAAKPTFGRSILKPSTPIPPQEGEEVGESSEEQDNAPKSVLGKVKIFEKMDHKARLQRMQELQEAQNARIEIAQKHPDIYAVPIKTHKPDPGTPQHTSSRPPEPQKAPSRPYQDTRGSYGSDAEEEEYRQQLSEHSKRGYYGQSARYRDTEL
  binding: binds
